{"source": "paper PMC8741576", "about": "(Molecular Diversity, 2022)", "type_in_all_cases": "cell-based", "key": {"[1]": {"system": "K-562 chronic myeloid leukemia cells", "assay": "Antiproliferative screening, IncuCyte cell growth", "conditions": "Homo sapiens, K562, read-out: IC50 K-562"}, "[2]": {"system": "Z-138 non-Hodgkin lymphoma cells", "assay": "Antiproliferative screening, IncuCyte cell growth", "conditions": "Homo sapiens, Z-138, read-out: IC50 Z-138"}, "[3]": {"system": "DND-41 acute lymphoblastic leukemia cells", "assay": "Antiproliferative screening, IncuCyte cell growth", "conditions": "Homo sapiens, DND41, read-out: IC50 DND-41"}, "[4]": {"system": "LN-229 glioblastoma cells", "assay": "Antiproliferative screening, MTS cell viability assay", "conditions": "Homo sapiens, LN-229, read-out: IC50 LN-229"}}}
{"smiles": "CN[C@@H]1C[C@H]2O[C@@](C)([C@@H]1OC)n1c3ccccc3c3c4c(c5c6ccccc6n2c5c31)C(=O)NC4", "note": "[STS, staurosporine, reference compound]", "values": [{"measurement": "IC50", "setting": "[1]", "value": "73.9 ± 3", "unit": "nM"}, {"measurement": "IC50", "setting": "[2]", "value": "40.7 ± 3", "unit": "nM"}, {"measurement": "IC50", "setting": "[3]", "value": "40.7 ± 3", "unit": "nM"}, {"measurement": "IC50", "setting": "[4]", "value": "51.1 ± 3", "unit": "nM"}]}
